Results on one molecule are retold here after US12274683B2 (Bayer HealthCare LLC, priority 2019, dated 2025).

The test system of the test is inflammation/edema induced by carrageenan-injection into the footpads of Sprague Dawley (SD) rats. The test can be described thus: Carrageenan-induced inflammation rat paw test (Example 3). As to conditions: topical 100 μL/rat 3 h (oral 1 h) before carrageenan, 2-24 h post-injection, N=10, SE in line below.

As to `COc1ccc2cc([C@H](C)C(=O)O)ccc2c1` [Naproxen (oral), Naproxen], the “Ankle Diameter Difference (R − L) AUC” value is recorded as “‡1.792” and the “Von Frey Absolute Threshold (g) AUC (Right Paw)” value is on record as “‡155.1 g”. The “Von Frey Absolute Threshold (g) AUC (Right Paw)” value (listed as oral Naproxen) is “increased significantly”.
